# According to publication PMC12431657, “Discovery and mechanistic insights of dibenzoylmethane as a broad spectrum inhibitor of coronavirus” (PLOS Pathogens, 2025):
# Structures can show the parent of a compound that is named as a salt. Where two headings read alike, the source gives them in different places. Out of some 3,300 compounds screened, about 60 (2%) showed an effect of 50% or more. This is one part of the list.
# System: HCoV-OC43
# Set-up: species or system RD; HTS, protection from HCoV-OC43 induced cell death, luminescent cell viability (CellCounting-Lite 2.0), inhibition rate
# Details: 24 h post infection, 1 h compound pre-incubation, 10 µM, inhibitor
SMILES,OC43 Inhibition rate,"OC43 Inhibition rate (OC43 Inhibition rate, 24 h)"
CC(=O)N[C@@H](CCCCN)C(=O)O [Acetyl-L-lysine],-0.1%,
C[C@@H]1CC[C@@]2(OC1)O[C@H]1C[C@H]3[C@@H]4CC[C@H]5C[C@@H](O[C@@H]6O[C@H](CO)[C@H](O[C@@H]7O[C@H](CO)[C@@H](O)[C@H](O[C@@H]8OC[C@@H](O)[C@H](O)[C@H]8O)[C@H]7O[C@@H]7O[C@H](CO)[C@H](O)[C@H](O)[C@H]7O)[C@H](O)[C@H]6O)CC[C@]5(C)[C@H]4CC(=O)[C@]3(C)[C@H]1[C@@H]2C [Terrestrosin D],-4.6%,
OCC(O)[C@@H](O)[C@H](O)[C@H](O)CO[C@H]1O[C@H](CO)[C@@H](O)[C@H](O)[C@H]1O (stereo partly shown) [Isomalt],0.6%,
"Cc1cc(=O)oc2cc(O)cc(O)c12 [5,7-Dihydroxy-4-methylcoumarin]",3.1%,
O=c1cc(-c2ccccc2)oc2cc(O)ccc12 [7-Hydroxyflavone],0.7%,
CCCCCCCC/C=C\CCCCCCCC(=O)NCC(=O)O [N-Oleoyl glycine],1.3%,
O=C(O)c1cccc(Oc2ccccc2)c1 [3-Phenoxybenzoic acid],-1.1%,
C/C=C(/C)C(=O)O[C@H]1Cc2cc3ccc(=O)oc3cc2OC1(C)C [Decursinol angelate],-0.5%,
CC(C)(O)C(=O)O [2-Hydroxyisobutyric acid],0.8%,
CN(C)[C@@H]1C(O)=C(C(N)=O)C(=O)[C@@]2(O)C(O)=C3C(=O)c4c(O)cccc4[C@@](C)(O)[C@H]3[C@H](O)[C@@H]12 [Oxytetracycline],0%,
C[N+](C)(C)CCCCC(=O)[O-] [delta-Valerobetaine],4.4%,
COc1ccc([C@@H]2CC(=O)c3c(O)cc(O[C@@H]4O[C@H](CO[C@@H]5O[C@@H](C)[C@H](O)[C@@H](O)[C@H]5O)[C@@H](O)[C@H](O)[C@H]4O)cc3O2)cc1 [Didymin],0.7%,
OC[C@H]1O[C@@](CO)(OC[C@@]2(O[C@H]3O[C@H](CO)[C@@H](O)[C@H](O)[C@H]3O)O[C@H](CO)[C@@H](O)[C@@H]2O)[C@@H](O)[C@@H]1O [1-Kestose],-0.8%,
Cc1ccc(C(N)=O)cn1 [6-Methylnicotinamide],8.3%,
CC(C)C[C@@](O)(CC(=O)OCc1ccc(O[C@@H]2O[C@H](CO)[C@@H](O)[C@H](O)[C@H]2O)cc1)C(=O)OCc1ccc(O[C@@H]2O[C@H](CO)[C@@H](O)[C@H](O)[C@H]2O)cc1 [Militarine],-0.1%,
COc1ccc([C@H]2OC[C@H]3[C@@H]2CO[C@H]3c2ccc(O[C@@H]3O[C@H](CO)[C@@H](O)[C@H](O)[C@H]3O)c(OC)c2)cc1OC [Phillyrin],0.2%,
CC(=O)[C@H]1CC[C@H]2[C@@H]3CCC4=CC(=O)CC[C@]4(C)[C@H]3CC[C@]12C [Progesterone],-1%,
C[C@@H]1O[C@@H](OC[C@H]2O[C@@H](Oc3c(-c4ccc(O)cc4)oc4cc(O[C@@H]5O[C@@H](C)[C@H](O)[C@@H](O)[C@H]5O)cc(O)c4c3=O)[C@H](O)[C@@H](O)[C@H]2O)[C@H](O)[C@H](O)[C@H]1O [Robinin],-1.1%,
COc1cc2c3c(c1OC)-c1ccccc1C[C@H]3N(C)CC2 [Nuciferine],2.6%,
O=C(O)CCCCC(=O)O [Adipic acid],-5.2%,

SMILES,OC43 Inhibition rate,"OC43 Inhibition rate (OC43 Inhibition rate, 24 h)"
"Cn1cc(C(=O)O)ccc1=O [1-Methyl-6-oxo-1,6-dihydropyridine-3-carboxylic acid]",0.2%,
COCC(=O)O [Methoxyacetic acid],5.1%,
COc1ccc(-c2cc(=O)c3c(OC)c(OC)c(OC)c(OC)c3o2)cc1O [3'-Demethylnobiletin],12.4%,
COc1c2ccoc2nc2c(O)cccc12 [Robustine],1.9%,
N[C@@H](CC(=O)N[C@@H](CC(=O)O)C(=O)O)C(=O)O [β-Aspartylaspartic acid],2.7%,
CCCC(=O)c1c(O)c(Cc2c(O)c(Cc3c(O)c(C)c(OC)c(C(=O)CCC)c3O)c(O)c(C(=O)[C@@H](C)CC)c2O)c(O)c(C)c1OC [Agrimol B],0.4%,
"CC(C)(C)c1ccc(O)c(C(C)(C)C)c1 [2,4-Di-tert-butylphenol]",0.9%,
CC(C)(O)[C@H]1CC[C@@](C)([C@H]2CC[C@]3(C)[C@@H]2[C@H](O)C[C@@H]2[C@@]4(C)CC[C@H](O)C(C)(C)[C@@H]4[C@@H](O[C@@H]4O[C@H](CO)[C@@H](O)[C@H](O)[C@H]4O)C[C@]23C)O1 [Pseudoginsenoside RT5],2.3%,
C[C@]12CC[C@@H]3c4ccc(O)cc4CC[C@H]3[C@@H]1CC[C@@H]2O [Estradiol],0.6%,
COc1cc(CC(=O)C(=O)O)ccc1O [Vanilpyruvic acid],6%,
c1ccc(Nc2ccccc2)cc1 [Diphenylamine (hydrochloride)],-2.3%,
CC[C@@]1(O)C(=O)OCc2c1cc1n(c2=O)Cc2cc3ccccc3nc2-1 [Camptothecin],-3.3%,
C[n+]1cc2c3c(ccc2c2ccc4cc5c(cc4c21)OCO5)OCO3 [Sanguinarine (chloride)],-27.3%,
CC1=C(CC[C@H](C)CO[C@@H]2O[C@H](CO)[C@@H](O)[C@H](O)[C@H]2O)O[C@H]2C[C@H]3[C@@H]4CC[C@@H]5C[C@@H](O[C@@H]6O[C@H](CO)[C@@H](O)[C@H](O)[C@H]6O[C@@H]6O[C@H](CO)[C@@H](O)[C@H](O)[C@H]6O)CC[C@]5(C)[C@H]4CC[C@]3(C)[C@@H]12 [Timosaponin C],1.3%,
O=C1C[C@@H](c2ccc(O)cc2)Oc2cc(O)ccc21 [Liquiritigenin],0.2%,
CC(C)=CCC[C@](C)(O[C@@H]1O[C@H](CO)[C@@H](O)[C@H](O)[C@H]1O)[C@H]1CC[C@]2(C)[C@@H]1[C@H](O)C[C@@H]1[C@@]3(C)CC[C@H](O)C(C)(C)[C@@H]3[C@@H](O)C[C@]12C [Ginsenoside F1],2.8%,
Nc1ncnc2c1ncn2[C@@H]1O[C@H](CO)[C@@H](O)[C@H]1O [Adenosine],5.5%,
N[C@H](CO)Cc1cnc[nH]1 [L-Histidinol (dihydrochloride)],-0.9%,
C=C(C)[C@@H]1CC[C@]2(C(=O)O)CC[C@]3(C)[C@H](CC[C@@H]4[C@@]5(C)CCC(=O)C(C)(C)[C@@H]5CC[C@]43C)[C@@H]12 [Betulonic acid],-0.8%,
CCN(CC)c1ccc2cc(-c3nc4ccccc4s3)c(=O)oc2c1 [Coumarin 6],-0.3%,

# Not a retest: an excerpt of the list.
SMILES,OC43 Inhibition rate,"OC43 Inhibition rate (OC43 Inhibition rate, 24 h)"
COc1c2ccoc2nc2c(O)cccc12 [Robustine],1.9%,
N[C@@H](CC(=O)N[C@@H](CC(=O)O)C(=O)O)C(=O)O [β-Aspartylaspartic acid],2.7%,
CCCC(=O)c1c(O)c(Cc2c(O)c(Cc3c(O)c(C)c(OC)c(C(=O)CCC)c3O)c(O)c(C(=O)[C@@H](C)CC)c2O)c(O)c(C)c1OC [Agrimol B],0.4%,

# Further results follow.

SMILES,OC43 Inhibition rate,"OC43 Inhibition rate (OC43 Inhibition rate, 24 h)"
"CCCCCCCC/C=C\CCCCCCCC(=O)OC[C@H](COP(=O)(O)O)OC(=O)CCCCCCC/C=C\CCCCCCCC [1,2-Dioleoyl-sn-glycero-3-phosphate, sodium salt]",1.6%,
CC(=O)O[C@H]1CC(=O)OC(C)(C)[C@@H]2CC(=O)[C@]3(C)[C@H](CC[C@@]4(C)[C@H](c5ccoc5)OC(=O)[C@H]5O[C@]543)[C@@]12C [Nomilin],0.1%,
O=C1O[C@H]([C@H](O)CO)C(O)=C1O [Sodium erythorbate],,-0.7%
C=CC1=C(C)c2cc3[nH]c(cc4nc(cc5[nH]c(cc1n2)c(C)c5CCC(=O)O)C(CCC(=O)O)=C4C)c(C)c3C=C [Protoporphyrin IX],0.4%,
CCc1c2c(nc3ccccc13)-c1cc3c(c(=O)n1C2)COC(=O)[C@]3(O)CC [7-Ethylcamptothecin],-1.9%,
CC[C@@H](N)C(=O)O [D(-)-2-Aminobutyric acid],6.5%,
C=C1C[C@@]23CC[C@H]4[C@@](C)(CCC[C@@]4(C)C(=O)O)[C@@H]2CC[C@]1(O)C3 [Steviol],0%,
Oc1ccc(OC2CCCCO2)cc1 (stereo not shown) [Deoxyarbutin],0.7%,
CNCc1ccccc1 [N-Methylbenzylamine],0%,
C=C(C)[C@H](CC=C(C)C)Cc1c(O)cc(O)c2c1O[C@H](c1ccc(O)cc1O)CC2=O [sophoraflavanone G],39.8%,
"COc1cc(OC)cc(OC)c1 [1,3,5-Trimethoxybenzene]",-0.5%,
O=c1ccc2cc(O)c(O[C@@H]3O[C@H](CO)[C@@H](O)[C@H](O)[C@H]3O)cc2o1 [Cichoriin],-0.2%,
COc1ccc(-c2oc3c(CC=C(C)C)c(O)cc(O)c3c(=O)c2O[C@@H]2O[C@@H](C)[C@H](O)[C@@H](O)[C@H]2O[C@@H]2O[C@@H](C)[C@H](O)[C@@H](O)[C@H]2O)cc1 [2''-O-Rhamnosylicariside II],0.3%,
CC(=O)c1c(C)c([N+](=O)[O-])c(C(C)(C)C)c([N+](=O)[O-])c1C [Musk ketone],5.5%,
CC(C)c1ccc2c(c1)CC[C@H]1[C@](C)(C(=O)O)CCC[C@]21C [Dehydroabietic acid],-0.5%,
O=C1Nc2ccccc2/C1=C1/Nc2ccccc2C1=O [Indirubin],-0.1%,
CC(C)(O)[C@@H]1Cc2c(cc3oc(CO)cc(=O)c3c2O)O1 [Angelicain],-0.3%,
CC(C)=CCC[C@]1(C)C=Cc2c(O)c3c(c(CC=C(C)C)c2O1)O[C@]12C(=C[C@@H]4C[C@H]1C(C)(C)O[C@@]2(C/C=C(/C)C(=O)O)C4=O)C3=O [Gambogic Acid],-4.4%,
